No constants are given. Whether binding was seen depends on the method and setting. In cells and extracts the contact can be indirect. Binding calls can cover weak binding; strength is not graded here.
Biological target: T1, BCAP (adaptor protein, product of Pik3ap1) (mouse (endogenous in primary CD4+ T cells)) (UniProt Q9EQ32)
T1 sequence (chain, phosphotyrosine after TCR stimulation (residues not told)): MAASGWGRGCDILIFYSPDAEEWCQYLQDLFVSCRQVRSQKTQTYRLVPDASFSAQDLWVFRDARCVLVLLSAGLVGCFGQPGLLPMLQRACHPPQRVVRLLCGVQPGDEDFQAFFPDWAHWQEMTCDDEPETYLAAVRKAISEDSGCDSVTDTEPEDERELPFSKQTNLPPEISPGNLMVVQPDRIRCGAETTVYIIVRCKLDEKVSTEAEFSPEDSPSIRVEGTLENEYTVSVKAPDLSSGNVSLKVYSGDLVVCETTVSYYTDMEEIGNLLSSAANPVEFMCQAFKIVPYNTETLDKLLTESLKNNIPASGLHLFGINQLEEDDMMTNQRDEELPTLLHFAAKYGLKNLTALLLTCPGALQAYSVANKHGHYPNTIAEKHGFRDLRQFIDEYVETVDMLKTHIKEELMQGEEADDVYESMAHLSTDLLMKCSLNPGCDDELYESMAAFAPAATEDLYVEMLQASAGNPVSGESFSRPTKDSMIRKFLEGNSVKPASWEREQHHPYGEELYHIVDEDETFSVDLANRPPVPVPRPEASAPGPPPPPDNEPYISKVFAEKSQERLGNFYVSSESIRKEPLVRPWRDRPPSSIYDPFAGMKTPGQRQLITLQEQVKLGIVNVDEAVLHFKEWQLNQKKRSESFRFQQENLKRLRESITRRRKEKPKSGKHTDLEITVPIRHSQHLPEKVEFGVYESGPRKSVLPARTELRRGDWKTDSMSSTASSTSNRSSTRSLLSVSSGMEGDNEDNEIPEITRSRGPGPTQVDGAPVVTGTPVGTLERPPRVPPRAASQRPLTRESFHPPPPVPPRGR
Assay: co-IP; rabbit polyclonal anti-mouse-BCAP and protein-A-Sepharose on lysates of CD4+ T cell blasts stimulated by CD3-CD4-crosslinking; immunoblot for p85

p85 (PI3K regulatory subunit, isoform not told)
binding: binds
